## Results of single-concentration screens

Chains of the proteins cited; added tags and fusions are not shown. Residues count along the entry.
UniProt P9WPC5, whole entry: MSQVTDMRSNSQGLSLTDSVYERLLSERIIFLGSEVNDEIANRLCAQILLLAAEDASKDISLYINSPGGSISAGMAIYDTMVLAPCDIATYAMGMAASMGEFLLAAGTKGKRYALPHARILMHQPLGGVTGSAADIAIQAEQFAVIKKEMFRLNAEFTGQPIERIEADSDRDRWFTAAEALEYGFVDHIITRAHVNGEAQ
UniProt P9WPC3, whole entry partner: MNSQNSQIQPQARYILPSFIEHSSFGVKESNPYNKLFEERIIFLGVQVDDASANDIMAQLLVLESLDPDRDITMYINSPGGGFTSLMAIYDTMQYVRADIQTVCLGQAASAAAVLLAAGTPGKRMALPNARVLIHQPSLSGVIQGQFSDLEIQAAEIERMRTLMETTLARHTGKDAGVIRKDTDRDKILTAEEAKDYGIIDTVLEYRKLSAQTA
UniProt P9WNZ1, whole entry: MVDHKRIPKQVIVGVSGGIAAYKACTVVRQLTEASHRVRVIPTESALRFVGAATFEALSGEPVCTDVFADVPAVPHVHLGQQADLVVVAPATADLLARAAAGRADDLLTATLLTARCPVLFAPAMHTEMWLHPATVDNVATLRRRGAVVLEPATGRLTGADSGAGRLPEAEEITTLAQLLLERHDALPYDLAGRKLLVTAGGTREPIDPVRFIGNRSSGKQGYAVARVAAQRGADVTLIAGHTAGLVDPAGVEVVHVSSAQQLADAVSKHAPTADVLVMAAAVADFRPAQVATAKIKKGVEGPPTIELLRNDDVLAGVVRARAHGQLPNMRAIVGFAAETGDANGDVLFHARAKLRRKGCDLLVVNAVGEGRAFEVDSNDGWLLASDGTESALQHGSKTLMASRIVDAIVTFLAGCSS
UniProt Q8IDJ8, 1-583: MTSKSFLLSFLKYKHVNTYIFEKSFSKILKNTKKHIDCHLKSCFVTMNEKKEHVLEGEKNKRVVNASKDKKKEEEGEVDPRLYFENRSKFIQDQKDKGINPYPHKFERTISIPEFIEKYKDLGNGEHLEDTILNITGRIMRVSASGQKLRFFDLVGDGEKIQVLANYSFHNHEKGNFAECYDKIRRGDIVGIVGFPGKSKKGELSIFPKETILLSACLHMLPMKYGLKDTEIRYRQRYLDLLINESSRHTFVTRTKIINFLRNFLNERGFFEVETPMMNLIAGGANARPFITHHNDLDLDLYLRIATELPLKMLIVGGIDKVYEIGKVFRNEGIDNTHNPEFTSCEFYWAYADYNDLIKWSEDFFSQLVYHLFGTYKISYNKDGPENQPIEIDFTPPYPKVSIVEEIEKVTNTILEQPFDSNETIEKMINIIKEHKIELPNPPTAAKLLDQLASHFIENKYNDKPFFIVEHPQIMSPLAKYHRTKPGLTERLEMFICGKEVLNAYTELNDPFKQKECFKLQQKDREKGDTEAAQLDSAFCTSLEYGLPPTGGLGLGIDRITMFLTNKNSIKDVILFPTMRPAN

ClpP1P2: 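ClpP1P2, Mycobacterium tuberculosis (UniProt P9WPC5 and UniProt P9WPC3). Protease assay of ClpP1P2, read by the AMC dye that it sets free. Concentration: 50 µM. Higher reads as stronger inhibition, judged from the few compounds that gave an IC50. Most other retested compounds had strongly negative values. Size under these conditions: about 69,000 compounds, about 10 of them at 50% or above in at least one test.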
CoaBC: 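Enzyme assay of CoaBC with a phosphate dye (Biomol Green) read at 650 nm. Target: Coenzyme A biosynthesis protein CoaBC, Mycobacterium tuberculosis (UniProt P9WNZ1). Compounds at 30 µM. Higher reads as stronger inhibition, judged from the few compounds that gave an IC50. Most strong results did not repeat in a second test. About 67,000 compounds were tested under these conditions; 0.06% (about 40) showed 50% or more at least once.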
PfKRS1: 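Enzyme assay of the cytosolic lysyl-tRNA synthetase in 384-well plates, read by luminescence. Target: Lysine-tRNA ligase, Plasmodium falciparum 3D7 (UniProt Q8IDJ8). Compounds at 30 µM. Higher reads as stronger inhibition, judged from the few compounds that gave an IC50. About 69,000 compounds were tested under these conditions; 0.071% (about 49) showed 50% or more at least once.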

Each number is a percent effect as filed. The record does not define 0% and 100%; most values in the screen are far below 50% and negative numbers occur (in some assays of this library far below -100). Compounds were drawn at random from those tested, without regard to their results. A dash means the value is not listed here; it may have been measured.

| # | structure | ClpP1P2 | CoaBC | PfKRS1 |
|---|---|---|---|---|
| 1 | `O=C(c1ccncc1)N1CCC(c2nc(O)cc(-c3ccncc3)n2)C1` (centres unmarked) | 17.47 | 16.06 | 0.3932 |
| 2 | `COc1c(C2CCCN2CC(=O)Nc2cc(C)no2)c(C)nn1C` (centres unmarked) | 3.047 | 4.384 | 7.798 |
| 3 | `CC(=O)N1CCCN(C(=O)c2cnn(C(C)(C)C)c2C)CC1` | -11.72 | -0.2389 | 1.314 |
| 4 | `O=C(Nc1c(N2CCCC2)cccc1N1CCCC1)c1ccccn1` | 6.886 | -24 | 4.052 |
| 5 | `O=C(NC1CCC1)C1=NOC2(CCN(Cc3ccco3)C2)C1` (centres unmarked) | 8.412 | 5.882 | 5.026 |
| 6 | `O=C(CC1CCc2ccccc21)NCCSc1cnn[nH]1` (centres unmarked) | 17.92 | -1.373 | 3.95 |
| 7 | `CN(C)CCOCc1ncn2c1CN(c1ncc(F)cn1)CCC2` | 8.972 | -0.2037 | 4.335 |
| 8 | `CCNc1ncc(CN(Cc2ccccc2)CC(C)CO)cn1` (centres unmarked) | 11.59 | -3.066 | -2.007 |
| 9 | `CC(C)(C(=O)NCC1CCN(Cc2cccnc2)C1)c1ccccc1` (centres unmarked) | -12.82 | 0.3589 | 3.16 |
| 10 | `Cc1nc(-c2ccccc2)sc1CSC(C)C(N)=O` (centres unmarked) | -0.4111 | -3.226 | -0.5664 |
| 11 | `Cc1cnc(C(=O)N2CCCCC2c2ccc(CN(C)C)cc2)cn1` (centres unmarked) | 4.889 | -7.54 | 7.568 |
| 12 | `CCOC(=O)[C@@H]1[C@@H](OC)C(=O)N(C)C12CCN(C(=O)C(CC)CC)CC2` | 4.057 | 1.104 | 1.22 |
| 13 | `CCn1cc(CNC(C)c2noc(-c3ccc(Cl)cc3)n2)cn1` (centres unmarked) | -8.958 | 6.341 | 4.988 |
| 14 | `CCCN1CCN(S(=O)(=O)c2ccccc2OC)[C@H]2CS(=O)(=O)C[C@H]21` | -7.239 | 3.163 | -1.39 |
| 15 | `O=C(Cc1ccccc1)N1CC[C@@H]2CNS(=O)(=O)[C@@H]2CC1` | -1.436 | 5.708 | 3.563 |
| 16 | `COc1cccc(-c2cccc(CN3C[C@@H]4CC[C@H](C3)N(C)C4=O)c2)c1` | 9.445 | - | 3.354 |
| 17 | `CCC[C@H]1CN(S(C)(=O)=O)C[C@@H]1NC(=O)CCOCC` | -15.23 | -2.096 | 0.7201 |
| 18 | `Cc1ccc(F)cc1CC(=O)N1CC[C@@]2(O)CCNC[C@H]2C1` | -7.874 | -4.092 | 3.369 |
| 19 | `c1cnn(C[C@@H]2C[C@@H]3CN(CC4CC4)CC[C@@H]3N2c2nccs2)c1` | -7.422 | 12.68 | 5.027 |
| 20 | `O=C(c1cc(Cl)ccc1OC1CCN(C2CCCC2)CC1)N1CC(O)C1` | 0.911 | -7.851 | 1.799 |
| 21 | `CN(C)c1nccc(-c2cnc(N(C)C)[nH]c2=O)n1` | 9.095 | -1.807 | 4.471 |
| 22 | `c1ncn(CC2CN(Cc3csc(C4CCCC4)n3)CCO2)n1` (centres unmarked) | 2.974 | 6.511 | 1.053 |
| 23 | `CC(=O)c1ccc(CN2CC(Oc3ccccc3C)C2)cc1` | -8.545 | 2.317 | 4.809 |
| 24 | `CCc1cc(=O)n(CCNC(=O)Nc2ccc(OC(F)(F)F)cc2)cn1` | 0.496 | 4.175 | -0.1233 |
| 25 | `COC(=O)c1cc(OCC2CCC2)cc(C(=O)N[C@@H](C)CO)c1` | 6.226 | 3.418 | 5.754 |
| 26 | `COCCN1C[C@@H]2COC[C@@H](CC(=O)NCc3cccnc3)[C@@H]2C1` | 2.574 | 2.788 | 1.138 |
| 27 | `CCCNC(=O)CCC(=O)N1CCC(c2n[nH]c(C3CC3)n2)CC1` | -2.202 | -2.337 | 0.441 |
| 28 | `CC(=O)N(C)Cc1ccccc1NC(=O)c1cnn(C)c1C` | 22.48 | 5.593 | 1.143 |
| 29 | `CCOc1cccnc1C(=O)N1CC=C(c2ccc(O)cc2)CC1` | 5.047 | 9.451 | 0.1783 |
| 30 | `CN(C)CC(C)(C)CN1CCC(c2ccnc(-c3cccc(O)c3)c2)C1` (centres unmarked) | 7.428 | -38.9 | 3.906 |
| 31 | `O=C(c1sccc1C1CC1)N1CCN(CC(F)(F)F)CC1` | -17.5 | 1.399 | 2.469 |
| 32 | `CN(C)S(=O)(=O)c1cccc(CNc2cc(CO)ccc2Cl)c1` | -16.7 | 5.854 | -0.02525 |
| 33 | `CC1=N[C@@]2(CC[C@@H]3CN(S(C)(=O)=O)C[C@@H]32)C(=O)N1CC(C)C` | 0.4744 | 2.538 | -4.017 |
| 34 | `COCc1nc(C(=O)N2CCCCC2Cn2cccn2)cs1` (centres unmarked) | 1.555 | 4.841 | 4.596 |
| 35 | `Cc1nonc1CN(C)CC1(O)CCCN(CCC2CCCCC2)C1=O` (centres unmarked) | 3.016 | 1.786 | -4.783 |
| 36 | `Cc1oc(C)c(C(=O)NS(=O)(=O)c2ccc3c(c2)OCCCO3)c1C` | 8.538 | 14.35 | 4.031 |
| 37 | `COc1ccc(Cc2ncc3c(n2)CN(C(=O)CO)C3)cc1` | -2.501 | -6.79 | 2.998 |
| 38 | `CCN1CC(C(=O)NC(C)(C)C)CC1=O` (centres unmarked) | 0.9566 | -1.717 | 1.502 |
| 39 | `Cc1nc(C)n(CC2CCCCN2CC(=O)NC(C2CC2)C2CC2)n1` (centres unmarked) | -15.74 | 8.864 | 3.149 |
| 40 | `Cc1ccccc1-c1cncc(C2CCN(C)CC2)n1` | -1.845 | 5.556 | -2.319 |
| 41 | `CCc1cc(N2CCN(c3cnccn3)CC2)n2nc(C)c(C)c2n1` | -0.03224 | -4.925 | 1.924 |
| 42 | `COCCC(=O)N1CCn2c(COCC3CC3)cnc2C1C` (centres unmarked) | -1.095 | 0.6435 | -5.913 |
| 43 | `O=C(c1csc(-c2ccco2)n1)N(CC1CCOC1)C1CC1` (centres unmarked) | 7.413 | 4.545 | 4.071 |
| 44 | `CCc1noc(CS(=O)(=O)CC(=O)N2c3ccccc3CC2C)n1` (centres unmarked) | 13.82 | 13.43 | 2.947 |
| 45 | `CN1CC(=O)N(C2CCNCC2)Cc2c(NC3CCC3)ncnc21` | -10.04 | 3.421 | -0.887 |
| 46 | `COCCCC1(CO)CCCN(CCS(C)(=O)=O)C1` (centres unmarked) | -3.905 | -4.904 | -1.774 |
| 47 | `c1cncc(OC[C@@]23CCC[C@@H]2CN(CC2CCOCC2)C3)c1` | 0.01659 | 4 | 1.684 |
| 48 | `CCC1=N[C@@]2(CC[C@@H]3CN(C(=O)Nc4ccccc4)C[C@@H]32)C(=O)N1CC` | -4.877 | -2.945 | 3.992 |

The last 5 entries again:

| structure | ClpP1P2 | CoaBC | PfKRS1 |
|---|---|---|---|
| `CCc1noc(CS(=O)(=O)CC(=O)N2c3ccccc3CC2C)n1` (centres unmarked) | 13.82 | 13.43 | 2.947 |
| `CN1CC(=O)N(C2CCNCC2)Cc2c(NC3CCC3)ncnc21` | -10.04 | 3.421 | -0.887 |
| `COCCCC1(CO)CCCN(CCS(C)(=O)=O)C1` (centres unmarked) | -3.905 | -4.904 | -1.774 |
| `c1cncc(OC[C@@]23CCC[C@@H]2CN(CC2CCOCC2)C3)c1` | 0.01659 | 4 | 1.684 |
| `CCC1=N[C@@]2(CC[C@@H]3CN(C(=O)Nc4ccccc4)C[C@@H]32)C(=O)N1CC` | -4.877 | -2.945 | 3.992 |

Source: ChEMBL document CHEMBL3988442, “University of Dundee, Small-Polar-MMV Screening Library” (2021).